Test results reported in the supplement of paper PMC4604168 (melanoma cell lines).
The list shows a part of the results. Repeats are few or missing, and single values can be far off.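 Imaging used 1,536-well plates; nuclei positive for cleaved PARP by antibody were divided by total DNA-stained nuclei to yield the apoptosis fraction. Doses for screening kept most cells viable, and cell lines differ markedly in resting and induced cleaved-PARP levels.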

tested on: CBRC016 (line from a melanoma biopsy); test: cleaved PARP positive nuclei fraction relative to DMSO control; melanoma cells; higher = more apoptosis; conditions: library dose: low library concentration; 72 h

Question: With Nc1ncn([C@H]2C[C@H](O)[C@@H](CO)O2)c(=O)n1 [decitabine] + Cc1cc(N2CCOCC2)cc2[nH]c(-c3c(NC[C@@H](O)c4cccc(Cl)c4)cc[nH]c3=O)nc12 [BMS536924] (first compound 0.1 µM, partner dose 0.2 µM) as the molecule, how does the “cleaved PARP positive nuclei fraction” value read?
Answer: 75.4%

Question: Which “cleaved PARP positive nuclei fraction” value does the source give for Cn1c(=O)n(-c2ccc(C(C)(C)C#N)cc2)c2c3cc(-c4cnc5ccccc5c4)ccc3ncc21 + NCC(=O)Nc1ccc(-n2nc(C(F)(F)F)cc2-c2ccc3c(ccc4ccccc43)c2)cc1 [OSU03012] (first compound 0.004 µM, partner dose 1 µM) here?
Answer: 92.1%

Question: Which “cleaved PARP positive nuclei fraction” value does the source give for CS(=O)(=O)CCNCc1ccc(-c2ccc3ncnc(Nc4ccc(OCc5cccc(F)c5)c(Cl)c4)c3c2)o1 [lapatinib] + O=C(Nc1cccc(Cl)c1)Nc1ncc(CCNc2ncnc3ccsc23)s1 [SNS314] (first compound 0.8 µM, partner dose 0.0008 µM) here?
Answer: 56.6%

Question: How did the “cleaved PARP positive nuclei fraction” value turn out when CN1CCN(c2ccc3nc(-c4c(N)c5c(F)cccc5[nH]c4=O)[nH]c3c2)CC1 [Dovitinib] + CN(C)S(=O)(=O)c1ccc2c(c1)/C(=C/c1cc3c([nH]1)CCCC3)C(=O)N2 [SU6656] (first compound 0.1 µM, partner dose 0.4 µM) was run?
Answer: 81%

Question: C[C@@H](Oc1cc(-c2cnn(C3CCNCC3)c2)cnc1N)c1c(Cl)ccc(F)c1Cl [Crizotinib] + Cn1cncc1[C@@](N)(c1ccc(Cl)cc1)c1ccc2c(c1)c(-c1cccc(Cl)c1)cc(=O)n2C [tipifarnib] (first compound 0.2 µM, partner dose 0.01 µM) was tested. Which “cleaved PARP positive nuclei fraction” value did it give?
Answer: 48.7%

Question: How did the “cleaved PARP positive nuclei fraction” value turn out when CO[C@H]1C[C@@H]2CC[C@@H](C)[C@@](O)(O2)C(=O)C(=O)N2CCCC[C@H]2C(=O)O[C@H]([C@H](C)C[C@@H]2CC[C@@H](OCCO)[C@H](OC)C2)CC(=O)[C@H](C)/C=C(\C)[C@@H](O)[C@@H](OC)C(=O)[C@H](C)C[C@H](C)/C=C/C=C/C=C/1C [everolimus] + O=C(Nc1cccc(Cl)c1)Nc1ncc(CCNc2ncnc3ccsc23)s1 [SNS314] (first compound 0.02 µM, partner dose 0.0008 µM) was run?
Answer: 122%

Question: O=C(O)c1ccc2c(c1)nc(Nc1cccc(Cl)c1)c1ccncc12 + NC(=O)Nc1cc(-c2cccc(F)c2)sc1C(=O)N[C@H]1CCCNC1 [AZD7762] (first compound 0.4 µM, partner dose 0.02 µM) was tested. Which “cleaved PARP positive nuclei fraction” value did it give?
Answer: 75.4%

Question: Cn1c(=O)n(-c2ccc(C(C)(C)C#N)cc2)c2c3cc(-c4cnc5ccccc5c4)ccc3ncc21 + O=C(O)c1ccc(-c2c[nH]c3ncc(-c4ccccc4)cc23)cc1C1CCCC1 [GSK650394] (first compound 0.004 µM, partner dose 0.16 µM) was tested. Which “cleaved PARP positive nuclei fraction” value did it give?
Answer: 154%

Question: O=C(O)c1ccc2c(c1)nc(Nc1cccc(Cl)c1)c1ccncc12 + O=C(O)c1ccc(-c2c[nH]c3ncc(-c4ccccc4)cc23)cc1C1CCCC1 [GSK650394] (first compound 0.4 µM, partner dose 0.16 µM) was tested. Which “cleaved PARP positive nuclei fraction” value did it give?
Answer: 140%

Question: For CC(C)C[C@H](NC(=O)[C@H](Cc1ccccc1)NC(=O)c1cnccn1)B(O)O [Bortezomib] + O=C(CCCCCCC(=O)Nc1ccccc1)NO [vorinostat] (first compound 0.001 µM, partner dose 0.08 µM), which “cleaved PARP positive nuclei fraction” value is on record?
Answer: 411%

Question: O=C(O)c1ccc2c(c1)nc(Nc1cccc(Cl)c1)c1ccncc12 + O=C(Nc1cccc(Cl)c1)Nc1ncc(CCNc2ncnc3ccsc23)s1 [SNS314] (first compound 0.4 µM, partner dose 0.0008 µM) was tested. Which “cleaved PARP positive nuclei fraction” value did it give?
Answer: 139%

Question: For Nc1nc(F)nc2c1ncn2[C@@H]1O[C@H](CO)[C@@H](O)[C@@H]1O [fludarabine] + C=CCn1c(=O)c2cnc(Nc3ccc(N4CCN(C)CC4)cc3)nc2n1-c1cccc(C(C)(C)O)n1 [MK1775] (first compound 0.2 µM, partner dose 0.02 µM), which “cleaved PARP positive nuclei fraction” value is on record?
Answer: 27.5%

Question: How did the “cleaved PARP positive nuclei fraction” value turn out when Nc1ccn([C@@H]2O[C@H](CO)[C@@H](O)C2(F)F)c(=O)n1 [gemcitabine] + COc1cc(Nc2ncc(F)c(Nc3ccc4c(n3)NC(=O)C(C)(C)O4)n2)cc(OC)c1OC [Tamatinib] (first compound 0.0004 µM, partner dose 0.4 µM) was run?
Answer: 61.5%

Question: Which “cleaved PARP positive nuclei fraction” value does the source give for Cn1c(=O)n(-c2ccc(C(C)(C)C#N)cc2)c2c3cc(-c4cnc5ccccc5c4)ccc3ncc21 + COc1cc2c(Oc3ccc4[nH]c(C)cc4c3F)ncnc2cc1OCCCN1CCCC1 [cediranib] (first compound 0.004 µM, partner dose 0.4 µM) here?
Answer: 52%

Question: Cc1cc(Nc2cc(N3CCN(C)CC3)nc(/C=C/c3ccccc3)n2)n[nH]1 + NC(=O)Nc1cc(-c2cccc(F)c2)sc1C(=O)N[C@H]1CCCNC1 [AZD7762] (first compound 0.04 µM, partner dose 0.02 µM) was tested. Which “cleaved PARP positive nuclei fraction” value did it give?
Answer: 45.9%

Question: Nc1nc(F)nc2c1ncn2[C@@H]1O[C@H](CO)[C@@H](O)[C@@H]1O [fludarabine] + O=C(Nc1cccc(Cl)c1)Nc1ncc(CCNc2ncnc3ccsc23)s1 [SNS314] (first compound 0.2 µM, partner dose 0.0008 µM) was tested. Which “cleaved PARP positive nuclei fraction” value did it give?
Answer: 32.5%

Question: With CS(=O)(=O)CCNCc1ccc(-c2ccc3ncnc(Nc4ccc(OCc5cccc(F)c5)c(Cl)c4)c3c2)o1 [lapatinib] + CN(NC(=O)CC(=O)NN(C)C(=S)c1ccccc1)C(=S)c1ccccc1 [STA4783] (first compound 0.8 µM, partner dose 0.006 µM) as the molecule, how does the “cleaved PARP positive nuclei fraction” value read?
Answer: 189%

Question: How did the “cleaved PARP positive nuclei fraction” value turn out when CC(C)C[C@H](NC(=O)[C@H](Cc1ccccc1)NC(=O)c1cnccn1)B(O)O [Bortezomib] + CO[C@@H]1[C@H](N(C)C(=O)c2ccccc2)C[C@H]2O[C@]1(C)n1c3ccccc3c3c4c(c5c6ccccc6n2c5c31)C(=O)NC4 [Midostaurin] (first compound 0.001 µM, partner dose 0.08 µM) was run?
Answer: 885%

Question: With C[C@@H](Oc1cc(-c2cnn(C3CCNCC3)c2)cnc1N)c1c(Cl)ccc(F)c1Cl [Crizotinib] + O=C(O)c1ccc(-c2c[nH]c3ncc(-c4ccccc4)cc23)cc1C1CCCC1 [GSK650394] (first compound 0.2 µM, partner dose 0.16 µM) as the molecule, how does the “cleaved PARP positive nuclei fraction” value read?
Answer: 135%

Question: How did the “cleaved PARP positive nuclei fraction” value turn out when CS(=O)(=O)CCNCc1ccc(-c2ccc3ncnc(Nc4ccc(OCc5cccc(F)c5)c(Cl)c4)c3c2)o1 [lapatinib] + NC(=O)Nc1cc(-c2cccc(F)c2)sc1C(=O)N[C@H]1CCCNC1 [AZD7762] (first compound 0.8 µM, partner dose 0.02 µM) was run?
Answer: 66.6%

Question: For CNC(=O)c1cc(Oc2ccc(NC(=O)Nc3ccc(Cl)c(C(F)(F)F)c3)cc2)ccn1 [sorafenib] + NC(=O)Nc1cc(-c2cccc(F)c2)sc1C(=O)N[C@H]1CCCNC1 [AZD7762] (first compound 0.4 µM, partner dose 0.02 µM), which “cleaved PARP positive nuclei fraction” value is on record?
Answer: 74.6%

Question: Which “cleaved PARP positive nuclei fraction” value does the source give for CN1CCN(c2ccc3nc(-c4c(N)c5c(F)cccc5[nH]c4=O)[nH]c3c2)CC1 [Dovitinib] + NCC(=O)Nc1ccc(-n2nc(C(F)(F)F)cc2-c2ccc3c(ccc4ccccc43)c2)cc1 [OSU03012] (first compound 0.1 µM, partner dose 1 µM) here?
Answer: 131%

Question: Which “cleaved PARP positive nuclei fraction” value does the source give for C=C(c1ccc(C(=O)O)cc1)c1cc2c(cc1C)C(C)(C)CCC2(C)C [Bexarotene] + NC(=O)Nc1cc(-c2cccc(F)c2)sc1C(=O)N[C@H]1CCCNC1 [AZD7762] (first compound 2 µM, partner dose 0.02 µM) here?
Answer: 196%

Question: Which “cleaved PARP positive nuclei fraction” value does the source give for Cn1c(=O)n(-c2ccc(C(C)(C)C#N)cc2)c2c3cc(-c4cnc5ccccc5c4)ccc3ncc21 + Cn1cncc1[C@@](N)(c1ccc(Cl)cc1)c1ccc2c(c1)c(-c1cccc(Cl)c1)cc(=O)n2C [tipifarnib] (first compound 0.004 µM, partner dose 0.01 µM) here?
Answer: 190%

Question: For C[C@@H](Oc1cc(-c2cnn(C3CCNCC3)c2)cnc1N)c1c(Cl)ccc(F)c1Cl [Crizotinib] + CN(NC(=O)CC(=O)NN(C)C(=S)c1ccccc1)C(=S)c1ccccc1 [STA4783] (first compound 0.2 µM, partner dose 0.006 µM), which “cleaved PARP positive nuclei fraction” value is on record?
Answer: 382%

Question: With CC(C)C[C@H](NC(=O)[C@H](Cc1ccccc1)NC(=O)c1cnccn1)B(O)O [Bortezomib] + COc1cc2c(Oc3ccc4[nH]c(C)cc4c3F)ncnc2cc1OCCCN1CCCC1 [cediranib] (first compound 0.001 µM, partner dose 0.4 µM) as the molecule, how does the “cleaved PARP positive nuclei fraction” value read?
Answer: 290%

Question: With Cc1cc(Nc2cc(N3CCN(C)CC3)nc(/C=C/c3ccccc3)n2)n[nH]1 + Cc1cc(N2CCOCC2)cc2[nH]c(-c3c(NC[C@@H](O)c4cccc(Cl)c4)cc[nH]c3=O)nc12 [BMS536924] (first compound 0.04 µM, partner dose 0.2 µM) as the molecule, how does the “cleaved PARP positive nuclei fraction” value read?
Answer: 107%

Question: With C[C@@H](Oc1cc(-c2cnn(C3CCNCC3)c2)cnc1N)c1c(Cl)ccc(F)c1Cl [Crizotinib] + CC1(C)NC(=O)N(c2ccc([N+](=O)[O-])c(C(F)(F)F)c2)C1=O [nilutamide] (first compound 0.2 µM, partner dose 1 µM) as the molecule, how does the “cleaved PARP positive nuclei fraction” value read?
Answer: 86.4%

Question: Which “cleaved PARP positive nuclei fraction” value does the source give for Cn1c(=O)n(-c2ccc(C(C)(C)C#N)cc2)c2c3cc(-c4cnc5ccccc5c4)ccc3ncc21 + NC(=O)Nc1cc(-c2cccc(F)c2)sc1C(=O)N[C@H]1CCCNC1 [AZD7762] (first compound 0.004 µM, partner dose 0.02 µM) here?
Answer: 27.8%
